Source: article PMC9169357
Results are given in words; binding and its absence hold for the method and conditions named. In cells and extracts the contact can be indirect. Here binding means that the protein was enriched with, or labelled near, the bait; the list need not be complete.

Chains of the proteins cited; added tags and fusions are not shown. Residues count along the entry.
UniProt P02751, residues 32-2477: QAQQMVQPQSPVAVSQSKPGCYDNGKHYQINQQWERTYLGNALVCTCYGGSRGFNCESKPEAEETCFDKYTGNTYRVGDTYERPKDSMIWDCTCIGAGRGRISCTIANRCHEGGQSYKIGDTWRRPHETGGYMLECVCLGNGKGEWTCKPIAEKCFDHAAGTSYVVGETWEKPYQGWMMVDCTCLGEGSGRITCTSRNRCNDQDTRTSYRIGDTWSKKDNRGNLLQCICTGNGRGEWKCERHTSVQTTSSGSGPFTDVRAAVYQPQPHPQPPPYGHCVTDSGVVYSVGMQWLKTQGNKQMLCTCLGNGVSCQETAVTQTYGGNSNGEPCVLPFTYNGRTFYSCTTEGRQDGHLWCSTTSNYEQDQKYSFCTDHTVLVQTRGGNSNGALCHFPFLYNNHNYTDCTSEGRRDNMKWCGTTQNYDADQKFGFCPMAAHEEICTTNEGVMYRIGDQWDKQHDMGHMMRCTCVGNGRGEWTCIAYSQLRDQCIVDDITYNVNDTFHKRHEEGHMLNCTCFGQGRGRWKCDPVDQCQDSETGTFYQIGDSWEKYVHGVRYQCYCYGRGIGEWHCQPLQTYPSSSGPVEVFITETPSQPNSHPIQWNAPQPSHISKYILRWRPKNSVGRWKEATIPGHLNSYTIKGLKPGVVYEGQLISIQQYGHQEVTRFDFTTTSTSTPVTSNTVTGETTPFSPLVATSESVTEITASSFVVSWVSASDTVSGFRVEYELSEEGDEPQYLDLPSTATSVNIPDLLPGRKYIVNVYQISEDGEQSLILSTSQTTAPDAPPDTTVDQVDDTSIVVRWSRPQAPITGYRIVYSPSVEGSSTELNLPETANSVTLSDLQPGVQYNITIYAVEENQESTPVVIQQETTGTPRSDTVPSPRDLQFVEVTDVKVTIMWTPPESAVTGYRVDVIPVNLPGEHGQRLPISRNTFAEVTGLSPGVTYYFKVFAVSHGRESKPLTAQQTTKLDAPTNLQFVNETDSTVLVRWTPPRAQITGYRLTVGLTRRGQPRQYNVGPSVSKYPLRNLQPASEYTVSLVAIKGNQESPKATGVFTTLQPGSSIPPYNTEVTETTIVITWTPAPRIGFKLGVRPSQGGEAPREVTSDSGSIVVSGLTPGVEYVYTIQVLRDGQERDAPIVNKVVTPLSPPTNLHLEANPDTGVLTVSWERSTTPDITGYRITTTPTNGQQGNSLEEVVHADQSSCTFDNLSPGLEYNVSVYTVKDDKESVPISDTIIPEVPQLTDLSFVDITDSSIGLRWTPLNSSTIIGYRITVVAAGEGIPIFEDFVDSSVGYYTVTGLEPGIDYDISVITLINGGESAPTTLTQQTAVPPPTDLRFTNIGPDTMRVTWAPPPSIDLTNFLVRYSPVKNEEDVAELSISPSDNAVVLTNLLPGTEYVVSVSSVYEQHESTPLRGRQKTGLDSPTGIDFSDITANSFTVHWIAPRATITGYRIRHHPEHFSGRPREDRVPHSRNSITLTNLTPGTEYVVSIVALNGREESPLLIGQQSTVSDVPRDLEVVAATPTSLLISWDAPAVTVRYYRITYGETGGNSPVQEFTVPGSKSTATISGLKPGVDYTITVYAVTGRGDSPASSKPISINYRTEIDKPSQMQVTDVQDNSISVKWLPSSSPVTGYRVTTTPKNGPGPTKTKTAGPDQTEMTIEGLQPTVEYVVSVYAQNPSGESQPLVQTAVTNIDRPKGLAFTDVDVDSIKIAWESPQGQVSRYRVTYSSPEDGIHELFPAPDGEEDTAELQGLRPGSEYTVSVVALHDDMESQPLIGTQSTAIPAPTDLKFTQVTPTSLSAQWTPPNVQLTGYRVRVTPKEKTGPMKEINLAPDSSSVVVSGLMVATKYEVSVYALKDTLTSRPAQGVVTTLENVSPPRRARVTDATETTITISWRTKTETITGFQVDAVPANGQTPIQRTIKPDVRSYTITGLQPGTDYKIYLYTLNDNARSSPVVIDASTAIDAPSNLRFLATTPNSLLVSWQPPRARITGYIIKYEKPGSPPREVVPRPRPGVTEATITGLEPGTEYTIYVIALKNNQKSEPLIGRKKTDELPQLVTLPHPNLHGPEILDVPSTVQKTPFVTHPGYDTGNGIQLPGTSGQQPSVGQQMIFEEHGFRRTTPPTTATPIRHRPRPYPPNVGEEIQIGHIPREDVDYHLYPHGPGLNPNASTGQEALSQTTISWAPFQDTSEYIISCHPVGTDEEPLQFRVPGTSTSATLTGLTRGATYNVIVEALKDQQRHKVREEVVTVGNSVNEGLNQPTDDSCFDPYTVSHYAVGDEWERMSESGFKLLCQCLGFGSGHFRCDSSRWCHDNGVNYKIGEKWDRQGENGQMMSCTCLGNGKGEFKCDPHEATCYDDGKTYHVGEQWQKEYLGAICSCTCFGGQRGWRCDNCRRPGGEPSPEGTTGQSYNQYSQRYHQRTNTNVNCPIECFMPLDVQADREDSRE

Biological target: T1, dysadherin (human (endogenous in SW480)) (UniProt Q96DB9)
T1 sequence: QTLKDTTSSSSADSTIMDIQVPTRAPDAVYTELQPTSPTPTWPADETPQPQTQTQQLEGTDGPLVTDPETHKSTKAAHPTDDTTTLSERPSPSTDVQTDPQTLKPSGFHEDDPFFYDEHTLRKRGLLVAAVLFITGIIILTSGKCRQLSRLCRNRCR
Test: affinity purification with mass spectrometry; co-IP with the monoclonal anti-dysadherin antibody M53 from whole-protein lysates of SW480 cells, followed by LC-MS

fibronectin (from UniProt P02751 32-2477)
binding: binds
